PubChem BioAssay AID652243 – Drosophila RNAi Screening Center, 2013
The screen tested about 24,000 reagents; this is an unselected part of those that have a named target and a result. Over the whole deposit, 246 (1%) were called active. 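Plates not normalised; calls are printed but the firefly/Renilla ratio behind them is not deposited; fold cut for lowering reported inconsistently.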 Raw values are not corrected between plates. Reagents against one gene are numbered here. The record does not give: the amount of reagent.

Screen: 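Knock-downs that decrease or increase androgen receptor reporter signal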 (primary screen)
Cells: Drosophila S2R+ cells
Reagents: long dsRNA against Drosophila genes
Timing: 72 h (48 h, then 24 h hormone)
Challenge: synthetic androgen R1881 at 10 nM for 24 h
Detection: 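Firefly light from an androgen-responsive reporter and Renilla control light per well, raw and unnormalised, for each of two replicates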
Reading the numbers: firefly reporter light: higher = more light from androgen-responsive reporter; Renilla control light: higher = more constitutive control signal (cell number, transfection)
Hit rule: 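Hit when the log firefly-to-Renilla ratio dropped or increased by a fixed fold versus the mean of GFP or LacZ controls across duplicate plates; lowering cut given as 1.5 and as 3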
Meaning of the calls: active = hit: reporter lowered or raised; inactive = no hit

gene,reagent,"firefly reporter light, replicate 1","firefly reporter light, replicate 2","Renilla control light, replicate 1","Renilla control light, replicate 2",outcome
tio (tiptop),1,1.99e5,1.15e5,1.64e6,7.37e5,inactive
CG9822,1,2.62e5,2.92e5,1.40e6,1.75e6,inactive
CG9902,1,4.25e5,3.22e5,2.32e6,1.85e6,inactive
CG9902,2,1.08e6,1.12e6,9.31e5,1.17e6,inactive
eIF4H2 (eukaryotic translation initiation factor 4H2),1,49978,37841,7.72e5,4.96e5,inactive
eIF4H2 (eukaryotic translation initiation factor 4H2),2,2.58e5,2.19e5,7.26e5,9.11e5,inactive
loh (lonely heart),1,1.93e5,2.29e5,5.29e5,5.09e5,inactive
loh (lonely heart),2,3.35e5,2.76e5,2.04e6,1.84e6,inactive
Polr1F (RNA polymerase I subunit F),1,9.64e5,1.06e6,1.98e6,1.98e6,inactive
Polr1F (RNA polymerase I subunit F),2,3.93e5,6.12e5,1.82e6,2.00e6,inactive
CG2811,1,3.20e5,2.82e5,1.81e6,1.31e6,inactive
Amy-p (Amylase proximal),1,1.83e5,2.47e5,1.90e6,1.90e6,inactive
"FucTD (alpha1,3-fucosyltransferase D)",1,46416,79054,7.08e5,8.86e5,inactive
Lsm12a (LSM12 homolog a),1,6.29e5,5.42e5,3.30e6,3.54e6,inactive
CG31205,1,2.03e5,1.57e5,2.75e5,3.03e5,inactive
CG31205,2,3.16e5,2.89e5,3.24e5,3.33e5,inactive
meigo (medial glomeruli),1,2.52e5,2.79e5,3.02e6,3.51e6,inactive
meigo (medial glomeruli),2,3.17e5,2.89e5,9.18e5,7.25e5,inactive
CecB (Cecropin B),1,2.39e5,2.46e5,2.31e6,2.99e6,inactive
Nepl21 (Neprilysin-like 21),1,1.73e5,1.08e5,7.32e5,4.35e5,inactive
Ssl1 (Suppressor of stem-loop mutation),1,60154,76655,2.64e5,2.97e5,inactive
CG11426,1,2.31e5,2.93e5,2.79e6,2.63e6,inactive
CG11426,2,3.09e5,3.58e5,5.61e5,8.64e5,inactive
CG11426,3,,,,,inactive
CG10344,1,2.62e5,2.48e5,1.97e6,1.64e6,inactive
CG10344,2,1.02e6,8.58e5,8.49e5,7.59e5,inactive
Drep1 (DNA fragmentation factor-related protein 1),1,3.64e5,2.29e5,1.64e6,1.25e6,inactive
CG32055,1,1.36e6,1.01e6,2.34e6,2.40e6,inactive
Listericin,1,4.11e5,2.82e5,2.03e6,2.33e6,inactive
Listericin,2,8.48e5,6.65e5,7.97e5,9.23e5,inactive
crp (cropped),1,1.01e5,1.23e5,1.14e6,1.49e6,inactive
"Sr-CI (Scavenger receptor class C, type I)",1,8.85e5,7.99e5,3.15e6,4.27e6,inactive
"Sr-CI (Scavenger receptor class C, type I)",2,2.93e5,2.61e5,7.78e5,4.98e5,inactive
PpD5 (Protein phosphatase D5),1,2.78e5,3.78e5,1.63e6,1.50e6,inactive
PpD5 (Protein phosphatase D5),2,7.23e5,7.41e5,1.85e6,1.69e6,inactive
wus (wurst),1,65326,81382,5.70e5,4.94e5,inactive
CG15071,1,80229,1.16e5,1.42e6,1.53e6,inactive
CG15071,2,5.39e5,7.22e5,9.89e5,1.60e6,inactive
dtn (detonator),1,2.10e5,2.89e5,1.59e6,1.39e6,inactive
dtn (detonator),2,3.76e5,3.98e5,1.19e6,1.49e6,inactive

Laid out differently: results already given
Nepl21 (Neprilysin-like 21)
- firefly reporter light, replicate 1: 1.73e5
- firefly reporter light, replicate 2: 1.08e5
- Renilla control light, replicate 1: 7.32e5
- Renilla control light, replicate 2: 4.35e5
- outcome: inactive

Ssl1 (Suppressor of stem-loop mutation)
- firefly reporter light, replicate 1: 60154
- firefly reporter light, replicate 2: 76655
- Renilla control light, replicate 1: 2.64e5
- Renilla control light, replicate 2: 2.97e5
- outcome: inactive

CG11426 #1
- firefly reporter light, replicate 1: 2.31e5
- firefly reporter light, replicate 2: 2.93e5
- Renilla control light, replicate 1: 2.79e6
- Renilla control light, replicate 2: 2.63e6
- outcome: inactive

CG11426 #2
- firefly reporter light, replicate 1: 3.09e5
- firefly reporter light, replicate 2: 3.58e5
- Renilla control light, replicate 1: 5.61e5
- Renilla control light, replicate 2: 8.64e5
- outcome: inactive

CG11426 #3
- outcome: inactive

CG10344 #1
- firefly reporter light, replicate 1: 2.62e5
- firefly reporter light, replicate 2: 2.48e5
- Renilla control light, replicate 1: 1.97e6
- Renilla control light, replicate 2: 1.64e6
- outcome: inactive

CG10344 #2
- firefly reporter light, replicate 1: 1.02e6
- firefly reporter light, replicate 2: 8.58e5
- Renilla control light, replicate 1: 8.49e5
- Renilla control light, replicate 2: 7.59e5
- outcome: inactive

Drep1 (DNA fragmentation factor-related protein 1)
- firefly reporter light, replicate 1: 3.64e5
- firefly reporter light, replicate 2: 2.29e5
- Renilla control light, replicate 1: 1.64e6
- Renilla control light, replicate 2: 1.25e6
- outcome: inactive

Further records:
gene,reagent,"firefly reporter light, replicate 1","firefly reporter light, replicate 2","Renilla control light, replicate 1","Renilla control light, replicate 2",outcome
CG15044,1,5.50e5,6.02e5,4.72e6,4.49e6,inactive
CG15044,2,6.20e5,6.16e5,2.43e6,2.04e6,inactive
CG15044,3,3.97e5,7.79e5,1.33e6,2.19e6,inactive
CG31952,1,1.39e5,1.00e5,1.32e6,1.36e6,inactive
CG31952,2,78008,98620,5.81e5,4.37e5,inactive
CG31952,3,2.76e5,3.04e5,9.26e5,1.02e6,inactive
capu (cappuccino),1,84331,77479,1.05e6,7.80e5,inactive
capu (cappuccino),2,6.34e5,4.14e5,1.56e6,1.03e6,inactive
CG31223,1,1.18e5,1.44e5,5.47e5,5.80e5,inactive
CG3397,1,76871,95698,6.14e5,7.22e5,inactive
sol (small optic lobes),1,2.03e5,2.28e5,7.05e5,5.39e5,inactive
sol (small optic lobes),2,2.60e5,2.14e5,6.33e5,7.35e5,inactive
conv (convoluted),1,77507,97835,1.30e6,1.30e6,inactive
Pex12 (Peroxin 12),1,82886,82670,6.72e5,6.89e5,inactive
Pex12 (Peroxin 12),2,2.35e5,2.58e5,5.58e5,5.66e5,inactive
Oat (Ornithine aminotransferase precursor),1,12707,13885,1.81e5,1.49e5,inactive
Cox10 (Cytochrome c oxidase assembly factor 10),1,6.43e5,4.71e5,1.23e6,1.11e6,inactive
Amph (Amphiphysin),1,9.45e5,8.27e5,1.58e6,1.45e6,inactive
m-cup (mann-cup),1,87427,83817,2.07e6,1.88e6,inactive
CG2209,1,5.71e5,4.89e5,3.65e6,3.89e6,inactive
Rpe (Ribulose-5-phosphate-3-epimerase),1,8.76e5,8.06e5,1.94e6,1.91e6,inactive
CG13085,1,1.30e5,1.63e5,1.43e6,1.70e6,inactive
CG13085,2,4.65e5,5.88e5,1.56e6,1.51e6,inactive
CG11367,1,3.88e5,8.28e5,5.30e5,7.41e5,inactive
spn-F,1,62130,42074,5.09e5,3.77e5,inactive
spn-F,2,4.98e5,5.56e5,1.28e6,1.28e6,inactive
CG11695,1,67743,51722,1.82e6,1.65e6,inactive
CG11695,2,4.40e5,3.56e5,8.43e5,1.23e6,inactive
pncr003:2L (retired record),1,6.08e5,8.10e5,1.70e6,1.66e6,inactive
pncr003:2L (retired record),2,9.26e5,6.83e5,1.84e6,1.31e6,inactive
pncr003:2L (retired record),3,6.92e5,5.51e5,1.61e6,2.27e6,inactive
CG15464 (retired record),1,4.46e5,5.34e5,2.18e6,3.06e6,inactive
CG15464 (retired record),2,1.22e6,9.85e5,2.72e6,2.00e6,inactive
CG10877,1,2.17e5,2.93e5,2.69e6,3.00e6,inactive
